# According to article PMC3217016:
# Sequences of proteins named here, by UniProt entry; tags and fusion partners are left off. Residues count along the entry.
# UniProt P08631, residues 22-526: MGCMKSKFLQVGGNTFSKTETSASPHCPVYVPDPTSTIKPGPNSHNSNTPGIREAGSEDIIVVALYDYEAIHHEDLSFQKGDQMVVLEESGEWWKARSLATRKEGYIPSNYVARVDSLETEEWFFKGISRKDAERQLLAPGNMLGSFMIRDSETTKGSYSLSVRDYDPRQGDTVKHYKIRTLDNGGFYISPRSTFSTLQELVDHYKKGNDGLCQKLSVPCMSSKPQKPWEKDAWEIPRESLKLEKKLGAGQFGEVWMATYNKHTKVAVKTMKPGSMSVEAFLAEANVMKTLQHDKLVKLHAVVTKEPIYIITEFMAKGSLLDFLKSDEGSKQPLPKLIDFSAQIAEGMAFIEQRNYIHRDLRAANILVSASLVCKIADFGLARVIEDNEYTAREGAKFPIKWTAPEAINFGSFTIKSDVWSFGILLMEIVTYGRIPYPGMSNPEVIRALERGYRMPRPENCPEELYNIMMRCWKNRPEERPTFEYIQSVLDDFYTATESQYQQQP
# Results are given in words; binding and its absence hold for the method and conditions named. Binding seen in cells or lysates may run through a third protein. Some results given as binding are weak or reduced against the parent protein; the word gives no strength.
# Molecular target: GST-Nef fusion protein, wild-type NL43 strain Nef (HIV-1 (strain NL43)) (UniProt P03406)
# Experiment: pull-down; GST-Nef fusion proteins on GST-Bind Resin incubated for 12 h at 4°C with total lysates of 293 cells transfected with Hck plasmids, in Nonidet P-40 lysis buffer (1% Nonidet P-40, 50 mM Tris, 150 mM NaCl) with protease inhibitors; bound Hck detected by Western blotting with anti-Hck (clone 18); only the target purified
substance,measurement,value
wild-type Hck (p56Hck) (from UniProt P08631-2 1-505) (enzyme),binding,binds
